Source: article PMC4297356
Results are given in words; binding and its absence hold for the method and conditions named. Binding seen in cells or lysates may run through a third protein. Here binding means that the protein was enriched with, or labelled near, the bait; the list need not be complete. Tags and fused reporters may be left off the sequences shown.

Target: T1, Vipp1–GFP (Synechocystis Vipp1 tagged with green fluorescent protein at the C-terminus) (Synechocystis sp. PCC6803) (UniProt Q55707)
T1 sequence: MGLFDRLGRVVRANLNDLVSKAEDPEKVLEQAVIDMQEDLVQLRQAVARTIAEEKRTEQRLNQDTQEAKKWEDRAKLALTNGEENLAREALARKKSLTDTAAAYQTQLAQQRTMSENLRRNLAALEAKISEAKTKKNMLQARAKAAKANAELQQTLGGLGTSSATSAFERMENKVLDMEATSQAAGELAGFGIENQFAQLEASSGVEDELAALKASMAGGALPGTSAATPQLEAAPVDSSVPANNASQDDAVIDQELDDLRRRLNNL
Test: affinity purification with mass spectrometry; anti-GFP microbeads (μMACS column) on lysate of HL-exposed (600 μE m^−2 s^−1) Synechocystis vipp1–gfp cells broken without detergent; bound fraction on 10% SDS-PAGE, bands identified by MS/MS; compared with LL vipp1–gfp and HL wild-type cells

binding	Substance
binds	ATP synthase subunit beta (from UniProt P26527 1-483)
binds	Chaperone protein DnaK2 (from UniProt P22358 1-636)
binds	Polyphosphate kinase
binds	Ribulose bisphosphate carboxylase large chain (from UniProt P54205 1-470)
binds	Light-dependent protochlorophyllide reductase (from UniProt Q59987 1-322)
binds	Glycine-tRNA ligase beta subunit
binds	Ribonuclease II
binds	C-phycocyanin alpha chain (from UniProt Q54715 1-162)
binds	Elongation factor Tu (from UniProt P74227 1-399)
binds	C-phycocyanin beta chain (from UniProt Q54714 1-172)
binds	Photosystem I protein A1 (from UniProt P29254 1-751)
binds	Phycobilisome linker polypeptide (cpcC1) (from UniProt P73203 1-291)
binds	Aconitate hydratase 2
binds	Orange carotenoid-binding protein (from UniProt P74102 1-317)
binds	Phycobilisome linker polypeptide (cpcC2) (from UniProt P73204 1-273)
binds	Phototaxis receptor PixJ1
binds	Ferredoxin-NADP reductase (from UniProt Q55318 1-413)
binds	Phycobiliprotein ApcE (from UniProt Q55544 1-896)
